# Data published in PMC5496739.
# Results are given in words; binding and its absence hold for the method and conditions named. Binding seen in cells or lysates may run through a third protein. Here binding means that the protein was enriched with, or labelled near, the bait; the list need not be complete.
# T1: MEF-exophilin-8 (wild type) (mouse) (UniProt Q8K3I4)
# T1 sequence: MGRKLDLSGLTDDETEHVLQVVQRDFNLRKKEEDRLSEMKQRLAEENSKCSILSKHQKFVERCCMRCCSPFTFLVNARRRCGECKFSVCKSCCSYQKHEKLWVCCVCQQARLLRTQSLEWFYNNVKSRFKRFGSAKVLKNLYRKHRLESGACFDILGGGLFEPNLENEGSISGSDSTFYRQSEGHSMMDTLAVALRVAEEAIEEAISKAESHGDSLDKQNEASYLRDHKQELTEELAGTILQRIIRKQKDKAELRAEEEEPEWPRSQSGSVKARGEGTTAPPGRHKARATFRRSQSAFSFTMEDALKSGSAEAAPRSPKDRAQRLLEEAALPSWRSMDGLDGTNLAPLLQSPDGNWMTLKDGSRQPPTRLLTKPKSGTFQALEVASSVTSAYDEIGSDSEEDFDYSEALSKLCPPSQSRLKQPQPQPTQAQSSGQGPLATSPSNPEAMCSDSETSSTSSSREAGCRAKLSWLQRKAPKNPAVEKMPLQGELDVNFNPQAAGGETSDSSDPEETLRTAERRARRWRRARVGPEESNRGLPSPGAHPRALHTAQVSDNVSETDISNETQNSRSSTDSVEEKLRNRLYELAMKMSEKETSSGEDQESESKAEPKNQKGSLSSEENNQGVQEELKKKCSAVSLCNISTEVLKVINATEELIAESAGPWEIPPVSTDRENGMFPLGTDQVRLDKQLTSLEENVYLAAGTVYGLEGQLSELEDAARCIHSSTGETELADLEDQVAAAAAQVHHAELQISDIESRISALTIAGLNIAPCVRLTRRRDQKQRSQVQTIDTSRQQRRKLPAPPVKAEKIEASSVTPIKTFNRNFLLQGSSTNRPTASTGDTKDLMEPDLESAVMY
# Biological target: T1, MEF-exophilin-8 (wild type) (mouse)
# Experiment: affinity purification with mass spectrometry; MIN6 cells expressing MEF-exophilin-8; anti-myc immunoprecipitation, TEV cleavage, anti-FLAG immunoprecipitation, FLAG peptide elution; SDS-PAGE, Oriole staining, bands analysed by nanoflow LC-MS/MS; control LacZ
binder,measurement,value
"RIM-BP2, endogenous in MIN6 cells (protein, UniProt Q80U40 1-1072) MREAAERRQQLELEHEQALAFLNAKQQEIQLLQQAQVEAKKEHEGAVQLLESKVRELEEKCRVQSEQFNLLSRDLEKFRQHTGSIDLLGSSSVALLDVPLAPGKPFPQYMNGLATSIHKGHEGPTGHYSVIGDYIPLSGDKLESPCVKPSFLLRSSSPRCRFESEMDNDRNSNNSKQSSSGKVHLCVARYSYNPFDGPNENPEAELPLTAGKYLYVYGDMDEDGFYEGELLDGQRGLVPSNFVDFIQDNESRLAGTLGSEQDQNFLNHSGISLERDSILHLHSPTQVDSGITDNGGGTLDVNIDDIGEDTVPYPRKITLIKQLAKSVIVGWEPPAVPPGWGTVSSYNVLVDKETRMSLALGRRTKALIEKLNTAACTYRISVQCVTSRGNSDELQCTLLVGKDVVVAPSQLRVDNITQISAQLSWLPTNSNYSHIIFLNEEELDIVKAARYKYQFFNLRPNMAYKVKVLAQPHQMPWQLPLEQREKKEACVEFSTLPAGPPAPPQDVTVHAGATAASVQVSWKPPALTPTGLSNGANVTGYGVYAKGQRVAEVIAPTADGTAVELIRLRSLEAKAVSVRTLSVQGESMDSALAAIPPDLLVPPAPHPRTAPPPKPLASDMDTKDQHLGPHVKVDESWEQSRSPGPAHGHMLEPPDMHSAGPGRRSPSPSRILPQPQGAPVSTTVAKAMAREAAQRVAESNRLEKRSLFLEQSSAGQYTNSDEEDGYASPEVKRRGTSVDDFLKGSELGKQPHCCHGDEYHTESSRGSDLSDIMEEDEEELYSEMQLEDGGRRRPSGTSHNALKILGNSTLMGRADRMEHVSRRYSHSGGGSHRHRPAMAPSIDEYTGRDHLSPDFYDESETDPGAEELPARIFVALFDYDPLTMSPNPDAAEEELPFKEGQIIKVYGDKDADGFYRGETCARLGLIPCNMVSEIHADDEEMMDQLLRQGFLPLNTPVEKIERSRRSGRGHSVPTRRMVALYDYDPRESSPNVDVEAELPFCTGDIITVFGEIDEDGFYYGELNGQKGLVPSNFLEEVPDDVEVHLSDAPPHYSHDPPMRSKAKRKKSVHFTP",binding,binds
